This passage reports AC50 results from PubChem BioAssay AID493014 (National Center for Advancing Translational Sciences (NCATS), 2011).

Structures are written as SMILES. The list shows a part of the results. The main result of the screen is listed elsewhere. These columns were measured beside it and carry no call. The list favours compounds with an active or inconclusive main result. The note in brackets gives the kind of curve behind each potency; many fits are weak.

This experiment is described as follows: qHTS Assay to Find Inhibitors of Chronic Active B-Cell Receptor Signaling. The note with it: ABC-DLBCL IkBa-CBG/CBR reporter, luminescence ratio (green luciferase fused to IkBa over red control in TMD8 lymphoma cells), 4 h. Summed up: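 Compounds up to 46 uM were incubated four hours with TMD8 cells whose green CBG68 luciferase is fused to IkappaBalpha; red CBR luminescence normalised the signal, and concentration-effect curves were fitted to fusion, red and ratio data.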

The mark [1] stands for this setting: measured here: CBR red luminescence, cell number.
Setting [2] is: measured here: IkBa-CBG green luminescence.

Consider `CC(=O)NC(=S)Nc1sc2c(c1C#N)CCCCC2`, for which the AC50 under setting [1] was 1.84 µM [rising, full curve, poor fit]. Regarding `COCc1c(C(=O)N2CCc3ccccc32)oc2ccccc12`, under setting [1], the half-maximal activity concentration (AC50) is 12.6 µM [rising, partial curve, poor fit]. Take `Cc1cccc(NC(=O)c2ccc(OCc3c(C)noc3C)cc2)c1C`: under setting [1], the AC50 is 25.9 µM [rising, single point].

In the case of `O=C(NC(=S)Nc1cc(Cl)ccc1O)c1cccc(Br)c1`, under setting [1], the AC50 was 12.6 µM [falling, partial curve]. On the same count and under the same terms, the value for `COC(=O)CCCNC(=O)c1ccc(OS(=O)(=O)c2cc([N+](=O)[O-])ccc2C)cc1` was 7.31 µM [rising, partial curve, poor fit]; that for `COc1ccc2nc(SCC(=O)NCc3ccc(F)cc3)[nH]c2c1` was 12.6 µM [falling, single point]. With `C[C@]12C=CC(=O)C=C1CC[C@@H]1[C@@H]2C(=O)C[C@@]2(C)[C@H]1CC[C@]2(O)C(=O)CO`, the half-maximal activity concentration (AC50) under setting [1] was 14.6 µM [rising, partial curve].

Take `CC(=O)c1sc(NC(=O)c2ccc(Br)o2)nc1C`: the half-maximal activity concentration (AC50) under setting [1] was 1.41 µM [falling, full curve]. For `CCc1cccc(C)c1NC(=O)c1cc(S(=O)(=O)N2CCC3(CC2)OCCO3)ccc1F`, under setting [1], the half-maximal activity concentration (AC50) is 6.31 µM [rising, single point]. Same read-out and setting: for `NS(=O)(=O)c1ccc(NC(=O)/C=C/c2ccccc2Cl)cc1` the value was 5.62 µM [rising, single point]. For `O=C1CCN(Cc2ccc(Br)cc2)CCN1[C@H](CO)c1ccccc1`, the AC50 under setting [1] was 35.5 µM [falling, single point]. As for `Cc1cccc(C(=O)NNC(=O)c2cccc(C)c2)c1`, the AC50 under setting [1] is 18.4 µM [falling, single point]. Consider `CC1CCc2c(sc(NC(=O)c3cccs3)c2C(=O)O)C1` (stereo not drawn), for which the AC50 under setting [1] is 1.12 µM [falling, full curve]. Same read-out and setting: the value for `Nc1nncn1C(=O)c1ccccc1Cl` was 9.2 µM [falling, partial curve, poor fit]; that for `O=C(CCC1CCCC1)NCc1cccs1` was 1.41 µM [rising, partial curve, poor fit]. Regarding `COc1ccc(-n2c(NC(=O)c3ccc(Br)o3)c(C#N)c3nc4ccccc4nc32)cc1`, under setting [1], the AC50 is 0.501 µM [rising, partial curve, poor fit]. With `CCCCNc1c(-c2ccc(OC)c(Sc3ccc(OC)cc3)c2)nc2ccccn12`, the AC50 under setting [1] was 20.6 µM [falling, partial curve] and the AC50 under setting [2] was 25.9 µM [rising, partial curve, poor fit].

Take `CC(=O)NCCc1nc2cc(NC(=O)c3ccc(Cl)cc3)ccc2n1C`: the AC50 under setting [1] was 11.2 µM [falling, partial curve, poor fit]. For `Fc1ccc(NC(=S)NCCN2CCOCC2)c(F)c1F`, under setting [1], the concentration at half-maximal activity (AC50) was 35.5 µM [falling, single point]. Still for that read-out and setting: the value for `CCn1c2ccccc2c2cc(NC(=O)CCCN3C(=O)CCC3=O)ccc21` was 1.16 µM [falling, full curve, poor fit]. For `CCCc1[nH]nc2c1C(c1ccc(OC)cc1OC)C(C#N)=C(N)O2` (stereo not drawn), under setting [1], the concentration at half-maximal activity (AC50) was 23.1 µM [falling, single point]. The same measure, in the same setting: for `COc1cc(=O)[nH]c(SCc2c(F)c(F)c(F)c(F)c2F)n1` the value was 23.1 µM [rising, partial curve, poor fit]; for `Cc1cccc(COCC(Cc2ccccc2)N2CCN(C(=O)c3cc(Cl)cc(Cl)c3)CCC2=O)c1` (stereo not drawn), 32.6 µM [falling, single point]; for `COCCCNCCCCOc1c(Cl)cc(C)cc1Br`, 2.51 µM [falling, full curve, poor fit]. For the compound `CN(Cc1ccco1)c1ncnc2ccc(-c3cccnc3)cc12`, the AC50 under setting [1] was 32.6 µM [rising, single point]. For `CCOc1ccc(-c2nc(C#N)c(NC3CC3)o2)cc1`, under setting [1], the concentration at half-maximal activity (AC50) was 18.4 µM [rising, partial curve, poor fit]. With `O=C(N/N=C(\c1ccccc1)c1ccccn1)c1ccccc1Cl`, the AC50 runs as follows: under setting [1], 28.2 µM [rising, single point]; under setting [2], 25.1 µM [falling, single point]. In the case of `COCCn1c(SCC(=O)N2CCCc3ccccc32)nc2ccccc2c1=O`, the half-maximal activity concentration (AC50) under setting [1] is 2.24 µM [falling, full curve]. The same measure, in the same setting: for `O=C(CC1CCCCC1)NCc1ccc(Cl)cc1` the value was 35.5 µM [rising, partial curve, poor fit]. On to `COc1ccc(COC(=O)C2=C(C)NC(=O)NC2c2cc(Br)c(O)c(OC)c2)cc1` (stereo not drawn), for which the AC50 was 2.82 µM [rising, full curve, poor fit] under setting [1] and 14.1 µM [falling, partial curve, poor fit] under setting [2].

For `COc1ccc(C(=S)N2CCN(S(=O)(=O)c3ccccc3)CC2)cc1`, under setting [1], the AC50 was 20 µM [falling, single point].

With `NC(=O)c1nsc(C(=O)N(c2cccc(F)c2)C(C(=O)NCC2CCCO2)c2ccc3ncccc3c2)c1N` (stereo not drawn), under setting [1], the AC50 is 0.447 µM [rising, full curve, poor fit]. Still for that read-out and setting: the value for `CCOC(=O)Nc1nc(C)c(C(=O)c2ccc(Cl)cc2)s1` was 3.26 µM [rising, full curve, poor fit]; that for `Cc1ccc(C(=O)Nc2sc3c(c2C(=O)O)CCCCC3)o1` was 1 µM [falling, full curve, poor fit]; that for `COc1ccc(N2CCN(C(=O)CSc3nnc(-c4cccnc4)n3-c3ccc(F)cc3)CC2)cc1` was 0.92 µM [rising, partial curve, poor fit]. As for `CC(=O)N1CCC2(CC1)CC(=O)c1cc(OCC(=O)N3CCOCC3)ccc1O2`, under setting [1], the AC50 was 20 µM [falling, partial curve]. On the same count and under the same terms, the value for `COc1ccc2c(c1OC)c(=O)n1c3ccc(OC(C)C(=O)NCCCN4CCOCC4)cc3c3ccnc2c31` (stereo not drawn) was 14.1 µM [falling, partial curve, poor fit]. In the case of `O=C(CCC1COc2ccccc2O1)NCc1ccco1` (stereo not drawn), under setting [2], the concentration at half-maximal activity (AC50) was 5.8 µM [rising, full curve, poor fit]. Turning to `COc1ccccc1C(=O)Nc1nc2cc3c(cc2s1)OCO3`, the AC50 under setting [1] was 0.316 µM [rising, full curve, poor fit].

For the compound `Cc1ccc(NC(CC(=O)c2ccccc2)C(=O)O)cc1Cl` (stereo not drawn), the concentration at half-maximal activity (AC50) under setting [1] is 17.8 µM [falling, partial curve, poor fit].
